Results are given in words; binding and its absence hold for the method and conditions named. For some of these results: Binding seen in cells or lysates may run through a third protein. Some results given as binding are weak or reduced against the parent protein; the word gives no strength. Where a sequence is shown, tags or fusion partners need not be part of it.

Protein sequences, listed by entry. Tags and fused reporters are not part of them.
UniProt A0A387K3P5: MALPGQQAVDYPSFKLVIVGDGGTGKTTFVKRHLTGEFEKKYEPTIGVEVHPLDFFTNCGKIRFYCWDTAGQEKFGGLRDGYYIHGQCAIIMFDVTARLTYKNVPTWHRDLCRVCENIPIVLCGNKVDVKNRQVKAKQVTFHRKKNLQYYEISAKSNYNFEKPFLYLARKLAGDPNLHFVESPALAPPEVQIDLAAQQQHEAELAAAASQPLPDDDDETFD

Assay [1] has as its target T1, NbRanBP1-1a (Nicotiana benthamiana Ran-binding protein 1-1a), bait fusion in pGBKT7 (Nicotiana benthamiana).
T1 sequence: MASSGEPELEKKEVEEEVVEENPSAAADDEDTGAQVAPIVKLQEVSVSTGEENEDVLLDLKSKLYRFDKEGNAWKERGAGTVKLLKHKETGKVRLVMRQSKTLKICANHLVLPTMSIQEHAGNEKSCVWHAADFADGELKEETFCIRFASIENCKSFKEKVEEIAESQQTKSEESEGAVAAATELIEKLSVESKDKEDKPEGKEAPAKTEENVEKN
In words: two-hybrid; … Two-Hybrid System3, yeast strain AH109; NbRanBP1-1a in bait vector pGBKT7, NbRan1a in prey vector pGADT7; growth on SD lacking leucine, tryptophan, histidine and adenine.

Assay [2] deals with GFP-NbRan1a (Nicotiana benthamiana). Briefly: co-IP; GFP-NbRan1a or GFP co-expressed with FLAG-NbRanBP1-1a in N. benthamiana leaves by agroinfiltration, harvested 48 h after inoculation; precipitation with anti-GFP antibody by the text (anti-FLAG by the legend), immunoblot with anti-FLAG and anti-GFP.
The target of assay [3] is nGFP-NbRan1a (Nicotiana benthamiana). Briefly: split reporter; BiFC with split GFP (nGFP 2-174, cGFP 175-239) in N. benthamiana leaf epidermal cells by agroinfiltration; imaged about 2 days after inoculation.
Assay [4] concerns the target cGFP-NbRan1a (Nicotiana benthamiana). Described as above.

With “NbRan1a (Nicotiana benthamiana small GTPase Ran1a), prey fusion in pGADT7 (from UniProt A0A387K3P5 1-221)”, the binding entry in assay [1] is “binds”.

B1: FLAG-NbRanBP1-1a (protein, UniProt A0A387K1P8 1-216)
chain: MASSGEPELEKKEVEEEVVEENPSAAADDEDTGAQVAPIVKLQEVSVSTGEENEDVLLDLKSKLYRFDKEGNAWKERGAGTVKLLKHKETGKVRLVMRQSKTLKICANHLVLPTMSIQEHAGNEKSCVWHAADFADGELKEETFCIRFASIENCKSFKEKVEEIAESQQTKSEESEGAVAAATELIEKLSVESKDKEDKPEGKEAPAKTEENVEKN
As to B1, the binding entry in assay [2] is listed as “binds”.

B2: cGFP-NbRanBP1-1a (protein, UniProt A0A387K1P8 1-216)
chain: MASSGEPELEKKEVEEEVVEENPSAAADDEDTGAQVAPIVKLQEVSVSTGEENEDVLLDLKSKLYRFDKEGNAWKERGAGTVKLLKHKETGKVRLVMRQSKTLKICANHLVLPTMSIQEHAGNEKSCVWHAADFADGELKEETFCIRFASIENCKSFKEKVEEIAESQQTKSEESEGAVAAATELIEKLSVESKDKEDKPEGKEAPAKTEENVEKN
In the case of B2, the binding entry in assay [3] is given as “binds”.

B3: nGFP-NbRanBP1-1a (protein, UniProt A0A387K1P8 1-216)
chain: MASSGEPELEKKEVEEEVVEENPSAAADDEDTGAQVAPIVKLQEVSVSTGEENEDVLLDLKSKLYRFDKEGNAWKERGAGTVKLLKHKETGKVRLVMRQSKTLKICANHLVLPTMSIQEHAGNEKSCVWHAADFADGELKEETFCIRFASIENCKSFKEKVEEIAESQQTKSEESEGAVAAATELIEKLSVESKDKEDKPEGKEAPAKTEENVEKN
For the molecule B3, the binding entry in assay [4] is listed as “binds”.

The values are drawn from PMC6418045.
